Laboratory results from the M2OR odorant receptor database.
The entries are a selection whose mix differs from that of the whole data set. The calls were merged from several studies; some rest on single wells. This is one part of the list.

Chains of the proteins cited; added tags and fusions are not shown. A line that says so, or that is headed by a name, gives the form on record, which may keep a tag or linker.
OR4N2, as listed by the source: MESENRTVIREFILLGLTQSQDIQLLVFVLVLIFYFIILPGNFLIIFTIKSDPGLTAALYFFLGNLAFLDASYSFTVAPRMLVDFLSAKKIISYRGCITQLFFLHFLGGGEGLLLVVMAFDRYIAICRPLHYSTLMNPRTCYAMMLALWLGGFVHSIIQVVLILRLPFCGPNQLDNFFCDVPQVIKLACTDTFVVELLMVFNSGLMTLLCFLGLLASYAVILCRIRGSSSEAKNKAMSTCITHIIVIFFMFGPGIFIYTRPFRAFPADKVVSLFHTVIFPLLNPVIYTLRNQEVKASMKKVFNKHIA
OR4K2, as listed by the source: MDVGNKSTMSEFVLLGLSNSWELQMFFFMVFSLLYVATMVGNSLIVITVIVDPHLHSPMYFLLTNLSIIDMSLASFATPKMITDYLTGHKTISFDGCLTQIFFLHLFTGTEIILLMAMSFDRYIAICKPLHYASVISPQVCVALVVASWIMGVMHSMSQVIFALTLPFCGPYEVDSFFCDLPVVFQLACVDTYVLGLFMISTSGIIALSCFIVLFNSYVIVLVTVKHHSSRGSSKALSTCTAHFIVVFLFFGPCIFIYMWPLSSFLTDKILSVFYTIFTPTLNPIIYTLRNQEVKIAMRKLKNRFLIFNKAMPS

What was measured:
Conditions in all cases: stereoisomer not certain
OR4F4 = test system: T1, OR4F4
T1 sequence (whole entry): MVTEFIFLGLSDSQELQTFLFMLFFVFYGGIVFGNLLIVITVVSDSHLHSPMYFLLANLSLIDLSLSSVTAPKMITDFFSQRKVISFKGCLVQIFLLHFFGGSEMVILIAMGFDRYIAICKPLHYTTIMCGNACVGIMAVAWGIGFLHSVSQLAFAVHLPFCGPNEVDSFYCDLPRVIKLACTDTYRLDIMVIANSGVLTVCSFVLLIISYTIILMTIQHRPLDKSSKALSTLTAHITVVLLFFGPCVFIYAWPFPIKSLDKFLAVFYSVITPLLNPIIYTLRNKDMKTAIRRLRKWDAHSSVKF
Outline: (§1)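 Values were gathered from published papers (main text and supplementary material), with extra details requested from the original authors when needed, and checked for typos and inconsistencies. Each receptor–molecule pair is called responsive (active) if the original authors judged the measured signal statistically different from baseline, and non-responsive (inactive) otherwise. Assay methods varied by source, often transient mammalian cell-line luciferase assays. Recorded details include cell line, G-protein, co-transfected protein and tags.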

OR4F6 (Homo sapiens) = target: T2, OR4F6 (Homo sapiens) (UniProt Q8NGB9)
T2 sequence (whole entry): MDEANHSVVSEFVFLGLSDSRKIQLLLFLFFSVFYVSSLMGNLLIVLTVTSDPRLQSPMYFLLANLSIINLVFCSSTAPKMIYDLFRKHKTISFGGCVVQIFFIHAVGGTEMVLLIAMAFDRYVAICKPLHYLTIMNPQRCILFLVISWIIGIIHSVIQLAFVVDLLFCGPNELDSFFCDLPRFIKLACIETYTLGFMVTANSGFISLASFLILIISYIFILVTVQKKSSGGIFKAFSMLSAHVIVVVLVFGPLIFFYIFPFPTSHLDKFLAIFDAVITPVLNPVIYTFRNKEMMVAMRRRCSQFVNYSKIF
Outline: as §1

OR4K13 (Homo sapiens) = target: T3, OR4K13 (Homo sapiens) (UniProt Q8NH42)
T3 sequence (whole entry): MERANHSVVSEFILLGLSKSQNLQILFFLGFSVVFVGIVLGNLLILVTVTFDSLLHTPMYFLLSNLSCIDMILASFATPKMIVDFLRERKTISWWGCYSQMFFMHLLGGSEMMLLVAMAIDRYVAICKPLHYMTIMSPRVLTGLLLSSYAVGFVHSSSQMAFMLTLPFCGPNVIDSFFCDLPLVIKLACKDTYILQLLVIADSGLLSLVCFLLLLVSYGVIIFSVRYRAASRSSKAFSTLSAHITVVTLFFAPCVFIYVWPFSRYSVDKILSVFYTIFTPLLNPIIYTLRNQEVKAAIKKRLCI
Outline: as §1

OR4K14 (Homo sapiens) = target: T4, OR4K14 (Homo sapiens) (UniProt Q8NGD5)
T4 sequence (whole entry): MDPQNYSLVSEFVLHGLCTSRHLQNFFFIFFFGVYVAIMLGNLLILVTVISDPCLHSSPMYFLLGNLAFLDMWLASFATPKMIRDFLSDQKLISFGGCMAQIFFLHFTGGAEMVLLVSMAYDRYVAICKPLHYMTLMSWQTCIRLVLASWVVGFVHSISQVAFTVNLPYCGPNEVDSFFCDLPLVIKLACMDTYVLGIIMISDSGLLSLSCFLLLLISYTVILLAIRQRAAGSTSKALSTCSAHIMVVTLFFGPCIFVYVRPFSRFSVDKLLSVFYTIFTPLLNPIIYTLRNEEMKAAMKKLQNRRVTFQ
Outline: as §1

OR4K1 = test system: T5, OR4K1
T5 sequence (whole entry): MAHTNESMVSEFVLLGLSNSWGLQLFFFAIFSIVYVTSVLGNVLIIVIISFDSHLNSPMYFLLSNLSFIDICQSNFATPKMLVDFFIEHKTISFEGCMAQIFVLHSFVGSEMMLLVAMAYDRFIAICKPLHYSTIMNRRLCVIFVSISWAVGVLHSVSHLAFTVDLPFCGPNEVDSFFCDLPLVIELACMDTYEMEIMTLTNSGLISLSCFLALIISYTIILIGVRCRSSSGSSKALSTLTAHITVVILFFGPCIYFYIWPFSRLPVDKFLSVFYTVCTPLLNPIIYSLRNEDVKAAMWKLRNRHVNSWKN
Outline: as §1

OR4K2 (Homo sapiens) = target: T6, OR4K2 (Homo sapiens) (UniProt Q8NGD2)
T6 sequence (whole entry): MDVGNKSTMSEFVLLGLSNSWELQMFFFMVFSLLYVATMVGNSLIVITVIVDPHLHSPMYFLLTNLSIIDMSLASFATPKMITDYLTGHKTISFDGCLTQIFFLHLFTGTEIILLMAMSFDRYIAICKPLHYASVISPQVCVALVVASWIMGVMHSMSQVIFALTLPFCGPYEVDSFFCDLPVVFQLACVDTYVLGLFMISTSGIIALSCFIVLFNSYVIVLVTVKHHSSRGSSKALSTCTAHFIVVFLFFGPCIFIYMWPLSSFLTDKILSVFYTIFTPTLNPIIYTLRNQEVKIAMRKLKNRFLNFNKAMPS
Outline: as §1

OR4K3 = test system: T7, OR4K3
T7 sequence (whole entry): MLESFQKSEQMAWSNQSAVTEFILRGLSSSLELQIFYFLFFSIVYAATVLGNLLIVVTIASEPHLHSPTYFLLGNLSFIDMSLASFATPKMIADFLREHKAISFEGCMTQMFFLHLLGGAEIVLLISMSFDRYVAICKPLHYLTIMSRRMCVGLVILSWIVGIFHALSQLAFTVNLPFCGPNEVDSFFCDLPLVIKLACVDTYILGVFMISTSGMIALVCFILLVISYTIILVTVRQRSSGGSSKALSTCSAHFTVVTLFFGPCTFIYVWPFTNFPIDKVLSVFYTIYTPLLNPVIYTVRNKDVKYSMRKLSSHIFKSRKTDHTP
Outline: as §1

OR4K5 (Homo sapiens) = target: T8, OR4K5 (Homo sapiens) (UniProt Q8NGD3)
T8 sequence (whole entry): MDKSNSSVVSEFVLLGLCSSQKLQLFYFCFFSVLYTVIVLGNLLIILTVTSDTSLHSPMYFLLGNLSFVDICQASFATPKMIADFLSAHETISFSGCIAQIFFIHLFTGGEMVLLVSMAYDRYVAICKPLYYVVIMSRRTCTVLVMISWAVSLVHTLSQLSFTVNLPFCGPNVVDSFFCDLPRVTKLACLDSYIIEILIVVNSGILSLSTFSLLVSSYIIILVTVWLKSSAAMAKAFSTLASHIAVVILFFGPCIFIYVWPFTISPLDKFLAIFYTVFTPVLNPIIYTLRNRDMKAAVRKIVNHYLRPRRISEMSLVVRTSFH
Outline: as §1

OR4KF = test system: T9, OR4KF
T9 sequence (whole entry): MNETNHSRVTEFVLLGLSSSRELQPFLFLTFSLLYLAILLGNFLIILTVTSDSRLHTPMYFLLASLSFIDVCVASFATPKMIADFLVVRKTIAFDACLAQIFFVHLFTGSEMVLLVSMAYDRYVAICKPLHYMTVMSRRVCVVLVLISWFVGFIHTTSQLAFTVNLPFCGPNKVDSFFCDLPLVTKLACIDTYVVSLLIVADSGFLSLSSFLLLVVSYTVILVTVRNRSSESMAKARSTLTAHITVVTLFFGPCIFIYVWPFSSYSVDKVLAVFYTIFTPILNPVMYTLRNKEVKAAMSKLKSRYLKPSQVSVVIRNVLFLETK
Outline: as §1

OR4KH = test system: T10, OR4KH
T10 sequence (whole entry): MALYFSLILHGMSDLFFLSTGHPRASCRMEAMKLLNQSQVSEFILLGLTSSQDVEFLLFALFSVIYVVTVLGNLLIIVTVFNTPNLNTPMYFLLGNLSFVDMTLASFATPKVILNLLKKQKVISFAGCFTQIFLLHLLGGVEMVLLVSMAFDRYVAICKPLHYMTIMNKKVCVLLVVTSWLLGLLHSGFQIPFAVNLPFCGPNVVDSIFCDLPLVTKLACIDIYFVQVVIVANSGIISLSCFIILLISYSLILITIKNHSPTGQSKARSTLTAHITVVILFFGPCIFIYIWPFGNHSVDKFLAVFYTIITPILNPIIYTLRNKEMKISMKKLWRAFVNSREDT
Outline: as §1

OR4L1 = test system: T11, OR4L1
T11 sequence (whole entry): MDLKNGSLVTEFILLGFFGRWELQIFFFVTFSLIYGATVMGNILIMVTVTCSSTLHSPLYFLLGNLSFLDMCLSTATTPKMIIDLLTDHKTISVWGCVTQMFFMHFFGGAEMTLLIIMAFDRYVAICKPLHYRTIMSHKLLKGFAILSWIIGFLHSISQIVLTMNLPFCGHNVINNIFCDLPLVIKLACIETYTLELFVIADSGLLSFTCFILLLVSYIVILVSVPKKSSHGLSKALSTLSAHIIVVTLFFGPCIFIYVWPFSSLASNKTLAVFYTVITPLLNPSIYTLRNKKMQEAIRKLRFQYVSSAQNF
Outline: as §1

OR4M1 (Homo sapiens) = target: T12, OR4M1 (Homo sapiens) (UniProt Q8NGD0)
T12 sequence (whole entry): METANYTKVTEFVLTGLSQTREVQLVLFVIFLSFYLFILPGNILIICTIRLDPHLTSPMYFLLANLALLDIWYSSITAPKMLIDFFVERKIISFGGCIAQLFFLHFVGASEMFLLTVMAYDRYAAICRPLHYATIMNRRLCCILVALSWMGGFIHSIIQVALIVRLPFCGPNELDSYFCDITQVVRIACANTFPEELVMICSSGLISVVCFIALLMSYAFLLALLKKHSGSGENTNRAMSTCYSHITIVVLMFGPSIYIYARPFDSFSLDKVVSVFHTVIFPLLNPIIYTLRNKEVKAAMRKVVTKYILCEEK
Outline: as §1

OR4N2 (Homo sapiens) = target: T13, OR4N2 (Homo sapiens) (UniProt Q8NGD1)
T13 sequence (whole entry): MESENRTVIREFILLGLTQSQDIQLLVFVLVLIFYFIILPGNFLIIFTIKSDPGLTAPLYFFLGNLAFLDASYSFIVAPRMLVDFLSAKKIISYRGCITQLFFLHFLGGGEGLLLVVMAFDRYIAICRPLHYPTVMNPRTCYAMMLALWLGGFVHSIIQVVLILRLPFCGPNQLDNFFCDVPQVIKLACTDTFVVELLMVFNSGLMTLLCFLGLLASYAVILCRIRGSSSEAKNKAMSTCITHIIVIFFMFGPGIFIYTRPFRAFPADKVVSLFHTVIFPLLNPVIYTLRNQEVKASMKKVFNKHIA
Outline: as §1

OR4N2 = test system: OR4N2
Outline: as §1

OR4K2 = test system: OR4K2
Outline: as §1

Measured: odorant receptor agonist call

CC(C)=CCCC(C)=CC=O
not listed: OR4N2 | OR4K2
inactive: all other assays above

CC12C=CCC1C1CCC3=CC(=O)CCC3(C)C1CC2 (stereo not given)
not listed: OR4N2 | OR4K2
inactive: all other assays above

COC(=O)c1ccccc1O
not listed: OR4N2 | OR4K2
inactive: all other assays above

CCCCCCCCCC=O
active: OR4KF
not listed: OR4N2 | OR4K2
inactive: all other assays above

CCCCO
active: OR4F4
not listed: OR4N2 | OR4K2
inactive: all other assays above

O=C1CCCCC1
not listed: OR4F4 | OR4KF | OR4M1 (Homo sapiens) | OR4N2 | OR4K2
inactive: all other assays above

CCCCCCCC=CC=O
active: OR4F4
not listed: OR4N2 | OR4K2
inactive: all other assays above

CC(C)(O)CCCC1=CCC(C=O)CC1 (stereo not given)
active: OR4F4
inactive: OR4KF | OR4M1 (Homo sapiens)

CC1COCc2cc3c(cc21)C(C)(C)C(C)C3(C)C (stereo not given)
inactive: OR4K14 (Homo sapiens) | OR4KF | OR4L1 | OR4M1 (Homo sapiens)
not listed: OR4N2 | OR4K2
active: all other assays above

C=CCc1ccc(OC)c(OC)c1
not listed: OR4K2
inactive: all other assays above

CCCCCC(C)=O
active: OR4K5 (Homo sapiens)
not listed: OR4F4 | OR4KF | OR4M1 (Homo sapiens) | OR4N2
inactive: all other assays above

COc1cc(C=O)ccc1O
not listed: OR4N2 | OR4K2
inactive: all other assays above

CC12CCC(CC1)C(C)(C)O2
not listed: OR4N2 | OR4K2
inactive: all other assays above
